Values from PubChem BioAssay AID1259308 (NCATS, 2017).
Here is a random part of about 59,000 reagents tested. About 1,510 of all reagents (2.6%) were called active. 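Calls use total luciferase alone and ignore viability, so some active siRNAs may act by altering cell number.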 Reagents against one gene are numbered here.

Screen: 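Genes whose loss raises luciferase production in HEK293 cells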 (primary screen)
Cell system: human HEK293 embryonic kidney cells stably expressing firefly luciferase (HEK-CMV-Luc2-Hygro)
Reagent: single siRNA against human genes, 0.8 pmol siRNA per well
Timing: 72 h
Read-out: 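Luciferase light (ONE-Glo) measured on one replicate plate set and viability (CellTiter-Glo) on the other, scaled to a negative control siRNA, with robust z-scores and luciferase per cell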
Reading the numbers: total luciferase, z-score and total luciferase, % of control: higher = more reporter protein produced; luciferase per cell, z-score: higher = more reporter output per viable cell; viable cells, % of control: higher = more viable cells
Call rule: 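Active when the median/MAD z-score for overall luciferase is greater than 3; a gene was taken forward for validation with new siRNAs if at least two of its three siRNAs passed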
Calls: active = raised luciferase; inactive = no rise

Target gene,reagent no.,"total luciferase, z-score","total luciferase, % of control","luciferase per cell, z-score","viable cells, % of control",call
ENPP6 (GeneID 133121),1,-0.286,76.2,-0.283,91.7,inactive
ENPP6 (GeneID 133121),2,0.192,85.7,0.275,89.1,inactive
ENPP6 (GeneID 133121),3,0.619,94.2,1.2,76.7,inactive
TLR7 (GeneID 51284),1,1.71,116,1.37,90.3,inactive
TLR7 (GeneID 51284),2,0.213,86.1,0.545,83.4,inactive
TLR7 (GeneID 51284),3,0.642,94.7,0.99,81.5,inactive
ZFTA (GeneID 65998),1,0.424,90.3,0.675,84.5,inactive
ZFTA (GeneID 65998),2,-0.725,67.5,-1.28,105,inactive
ZFTA (GeneID 65998),3,-0.107,79.8,0.279,82.8,inactive
VMO1 (GeneID 284013),1,2.82,138,2.08,89.2,inactive
VMO1 (GeneID 284013),2,0.584,93.5,0.396,94.1,inactive
VMO1 (GeneID 284013),3,3.13,144,1.63,105,active
CEP170 (GeneID 9859),1,0.705,95.9,0.14,103,inactive
CEP170 (GeneID 9859),2,-0.922,63.6,-0.971,91.7,inactive
CEP170 (GeneID 9859),3,0.762,97.1,0.43,96.8,inactive
SELP (GeneID 6403),1,-0.324,75.4,-1.07,112,inactive
SELP (GeneID 6403),2,-0.517,71.6,-0.457,90.2,inactive
SELP (GeneID 6403),3,1.97,121,1.03,103,inactive
MX2 (GeneID 4600),1,-0.19,78.1,-0.0499,88.4,inactive
MX2 (GeneID 4600),2,0.0288,82.5,0.478,81.2,inactive
MX2 (GeneID 4600),3,-0.215,77.6,-0.966,112,inactive
ZNF540 (GeneID 163255),1,-0.642,69.1,-0.865,97,inactive
ZNF540 (GeneID 163255),2,-0.876,64.5,-1.03,94.5,inactive
ZNF540 (GeneID 163255),3,-1.99,42.4,-1.45,69.4,inactive
SCUBE3 (GeneID 222663),1,0.556,92.9,0.81,83.9,inactive
SCUBE3 (GeneID 222663),2,0.149,84.9,-0.0276,95.5,inactive
SCUBE3 (GeneID 222663),3,0.588,93.6,1.25,75.3,inactive
HERPUD1 (GeneID 9709),1,0.736,96.5,0.912,84.8,inactive
HERPUD1 (GeneID 9709),2,-0.369,74.5,-0.242,88.8,inactive
HERPUD1 (GeneID 9709),3,0.045,82.8,-0.637,109,inactive
BDNF (GeneID 627),1,0.0528,82.9,-0.396,103,inactive
BDNF (GeneID 627),2,-1.85,45,-2.56,98.7,inactive
BDNF (GeneID 627),3,0.156,85,0.167,90.9,inactive
SHLD2 (GeneID 54537),1,-0.382,74.3,1.77,52.1,inactive
SHLD2 (GeneID 54537),2,0.961,101,0.329,103,inactive
SHLD2 (GeneID 54537),3,-0.596,70,-0.607,91.8,inactive
SLC6A6 (GeneID 6533),1,-0.465,72.6,-1.14,110,inactive
SLC6A6 (GeneID 6533),2,0.819,98.2,-0.216,116,inactive
SLC6A6 (GeneID 6533),3,1.61,114,0.697,106,inactive
